Data published in the supplement of paper PMC10849652.
The other results are listed elsewhere or left out. Residues, ends and D or L forms follow the SMILES beside them. *: point of attachment. Cbz = O=C(OCc1ccccc1)*

By UniProt entry, the sequences of proteins in these tests, tags left out. Where a name states a change or a piece, a line headed by the entry shows the natural chain unless it says otherwise.
UniProt Q9P0L0: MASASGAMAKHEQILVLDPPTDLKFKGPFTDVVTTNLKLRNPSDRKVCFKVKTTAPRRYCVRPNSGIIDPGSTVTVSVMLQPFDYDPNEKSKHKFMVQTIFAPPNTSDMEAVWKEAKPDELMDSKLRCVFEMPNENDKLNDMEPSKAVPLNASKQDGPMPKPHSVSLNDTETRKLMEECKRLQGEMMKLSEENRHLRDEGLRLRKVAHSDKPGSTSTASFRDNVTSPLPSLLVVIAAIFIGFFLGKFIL
UniProt Q9BZX2: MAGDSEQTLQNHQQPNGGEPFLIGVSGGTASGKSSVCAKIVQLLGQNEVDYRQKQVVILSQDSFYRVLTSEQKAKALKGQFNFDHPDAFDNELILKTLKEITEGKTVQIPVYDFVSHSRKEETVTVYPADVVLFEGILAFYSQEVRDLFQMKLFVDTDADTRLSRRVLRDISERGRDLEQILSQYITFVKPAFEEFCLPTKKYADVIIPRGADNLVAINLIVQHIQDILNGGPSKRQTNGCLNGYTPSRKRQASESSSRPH
UniProt P15374: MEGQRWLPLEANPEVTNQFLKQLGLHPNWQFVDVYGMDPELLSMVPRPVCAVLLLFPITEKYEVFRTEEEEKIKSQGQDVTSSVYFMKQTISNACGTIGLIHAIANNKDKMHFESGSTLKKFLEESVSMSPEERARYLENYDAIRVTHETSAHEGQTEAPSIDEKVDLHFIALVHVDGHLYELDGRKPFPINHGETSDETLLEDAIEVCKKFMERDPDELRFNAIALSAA
UniProt Q9HA47: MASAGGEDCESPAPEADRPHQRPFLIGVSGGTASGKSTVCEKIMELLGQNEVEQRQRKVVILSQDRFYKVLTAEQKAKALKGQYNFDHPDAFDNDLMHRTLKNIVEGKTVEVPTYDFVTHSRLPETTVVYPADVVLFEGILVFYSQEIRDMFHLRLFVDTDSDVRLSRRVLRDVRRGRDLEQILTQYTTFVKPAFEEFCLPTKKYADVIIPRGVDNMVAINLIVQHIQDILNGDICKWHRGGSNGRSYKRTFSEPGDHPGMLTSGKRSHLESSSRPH
UniProt Q92900: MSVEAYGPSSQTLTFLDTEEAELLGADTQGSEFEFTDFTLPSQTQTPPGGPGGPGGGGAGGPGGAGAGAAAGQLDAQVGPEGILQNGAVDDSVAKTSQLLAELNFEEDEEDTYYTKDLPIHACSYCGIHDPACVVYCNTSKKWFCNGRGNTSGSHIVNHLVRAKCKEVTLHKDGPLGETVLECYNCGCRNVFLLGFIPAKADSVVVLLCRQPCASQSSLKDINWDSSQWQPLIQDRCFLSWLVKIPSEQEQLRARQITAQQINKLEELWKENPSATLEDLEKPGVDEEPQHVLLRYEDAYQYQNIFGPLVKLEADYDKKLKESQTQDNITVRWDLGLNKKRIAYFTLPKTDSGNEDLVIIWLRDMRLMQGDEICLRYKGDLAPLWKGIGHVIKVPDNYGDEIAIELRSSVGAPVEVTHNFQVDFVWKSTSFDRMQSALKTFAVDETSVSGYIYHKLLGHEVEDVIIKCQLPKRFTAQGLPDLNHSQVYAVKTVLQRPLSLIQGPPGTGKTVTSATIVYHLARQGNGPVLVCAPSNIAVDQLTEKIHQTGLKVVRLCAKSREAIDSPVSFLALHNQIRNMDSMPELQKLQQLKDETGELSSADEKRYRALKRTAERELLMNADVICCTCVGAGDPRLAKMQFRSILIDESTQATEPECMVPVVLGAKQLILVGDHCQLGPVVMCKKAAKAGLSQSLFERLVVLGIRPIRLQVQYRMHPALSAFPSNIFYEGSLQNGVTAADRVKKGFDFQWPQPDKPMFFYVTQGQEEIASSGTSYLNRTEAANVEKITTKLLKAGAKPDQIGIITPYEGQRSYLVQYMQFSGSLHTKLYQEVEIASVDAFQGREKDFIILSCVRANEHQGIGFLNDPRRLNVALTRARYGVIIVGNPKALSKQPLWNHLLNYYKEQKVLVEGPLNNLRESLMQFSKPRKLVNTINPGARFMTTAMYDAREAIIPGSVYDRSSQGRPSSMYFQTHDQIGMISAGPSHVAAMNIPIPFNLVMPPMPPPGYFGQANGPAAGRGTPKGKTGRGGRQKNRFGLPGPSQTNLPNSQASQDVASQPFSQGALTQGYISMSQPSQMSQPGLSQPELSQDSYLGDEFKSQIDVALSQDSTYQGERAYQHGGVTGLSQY
UniProt P11441: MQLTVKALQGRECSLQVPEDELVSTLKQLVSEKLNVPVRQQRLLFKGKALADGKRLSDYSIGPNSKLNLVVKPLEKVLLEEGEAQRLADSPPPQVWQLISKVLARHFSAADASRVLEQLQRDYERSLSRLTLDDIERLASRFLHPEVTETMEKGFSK
UniProt O14562: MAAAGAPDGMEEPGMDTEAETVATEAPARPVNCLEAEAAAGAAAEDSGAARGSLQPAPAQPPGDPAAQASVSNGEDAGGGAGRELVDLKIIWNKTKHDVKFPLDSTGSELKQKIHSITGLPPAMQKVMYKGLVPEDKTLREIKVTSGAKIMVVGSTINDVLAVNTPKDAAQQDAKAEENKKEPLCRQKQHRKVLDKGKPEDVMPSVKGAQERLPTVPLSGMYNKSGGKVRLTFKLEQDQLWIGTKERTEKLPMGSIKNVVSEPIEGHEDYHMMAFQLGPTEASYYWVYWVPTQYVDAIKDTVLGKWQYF
UniProt Q9HAU5: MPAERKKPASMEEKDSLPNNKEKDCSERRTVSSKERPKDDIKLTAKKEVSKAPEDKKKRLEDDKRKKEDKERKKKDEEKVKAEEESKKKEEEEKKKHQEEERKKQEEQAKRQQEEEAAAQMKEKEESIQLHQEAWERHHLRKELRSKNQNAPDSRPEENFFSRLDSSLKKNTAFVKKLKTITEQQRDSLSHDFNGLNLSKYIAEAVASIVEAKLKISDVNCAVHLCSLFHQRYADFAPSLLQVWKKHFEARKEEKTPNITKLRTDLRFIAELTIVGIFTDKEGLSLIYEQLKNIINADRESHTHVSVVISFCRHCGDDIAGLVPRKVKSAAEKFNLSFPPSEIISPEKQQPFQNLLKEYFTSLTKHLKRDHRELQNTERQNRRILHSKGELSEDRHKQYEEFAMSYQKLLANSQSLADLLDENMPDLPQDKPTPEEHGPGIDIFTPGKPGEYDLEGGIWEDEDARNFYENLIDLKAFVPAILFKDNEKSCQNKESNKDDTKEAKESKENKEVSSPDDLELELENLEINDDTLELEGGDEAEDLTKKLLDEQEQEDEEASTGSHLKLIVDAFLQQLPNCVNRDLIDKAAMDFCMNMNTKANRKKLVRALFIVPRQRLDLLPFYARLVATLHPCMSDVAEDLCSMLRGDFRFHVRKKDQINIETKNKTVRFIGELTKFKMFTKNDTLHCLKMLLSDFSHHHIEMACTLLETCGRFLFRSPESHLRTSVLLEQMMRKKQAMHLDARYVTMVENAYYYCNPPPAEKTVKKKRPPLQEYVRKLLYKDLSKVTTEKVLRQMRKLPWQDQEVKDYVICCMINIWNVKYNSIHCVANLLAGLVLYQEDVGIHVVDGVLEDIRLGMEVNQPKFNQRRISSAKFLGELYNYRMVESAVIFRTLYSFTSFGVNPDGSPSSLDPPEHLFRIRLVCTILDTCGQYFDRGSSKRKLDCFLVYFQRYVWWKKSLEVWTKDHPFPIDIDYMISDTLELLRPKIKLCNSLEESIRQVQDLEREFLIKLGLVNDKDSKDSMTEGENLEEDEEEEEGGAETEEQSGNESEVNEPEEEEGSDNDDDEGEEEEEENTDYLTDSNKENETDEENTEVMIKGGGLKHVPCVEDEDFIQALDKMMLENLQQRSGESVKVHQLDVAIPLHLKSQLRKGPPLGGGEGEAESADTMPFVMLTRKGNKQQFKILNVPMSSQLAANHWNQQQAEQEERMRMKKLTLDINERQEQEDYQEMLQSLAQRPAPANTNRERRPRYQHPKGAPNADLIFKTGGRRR
UniProt Q9UHP3: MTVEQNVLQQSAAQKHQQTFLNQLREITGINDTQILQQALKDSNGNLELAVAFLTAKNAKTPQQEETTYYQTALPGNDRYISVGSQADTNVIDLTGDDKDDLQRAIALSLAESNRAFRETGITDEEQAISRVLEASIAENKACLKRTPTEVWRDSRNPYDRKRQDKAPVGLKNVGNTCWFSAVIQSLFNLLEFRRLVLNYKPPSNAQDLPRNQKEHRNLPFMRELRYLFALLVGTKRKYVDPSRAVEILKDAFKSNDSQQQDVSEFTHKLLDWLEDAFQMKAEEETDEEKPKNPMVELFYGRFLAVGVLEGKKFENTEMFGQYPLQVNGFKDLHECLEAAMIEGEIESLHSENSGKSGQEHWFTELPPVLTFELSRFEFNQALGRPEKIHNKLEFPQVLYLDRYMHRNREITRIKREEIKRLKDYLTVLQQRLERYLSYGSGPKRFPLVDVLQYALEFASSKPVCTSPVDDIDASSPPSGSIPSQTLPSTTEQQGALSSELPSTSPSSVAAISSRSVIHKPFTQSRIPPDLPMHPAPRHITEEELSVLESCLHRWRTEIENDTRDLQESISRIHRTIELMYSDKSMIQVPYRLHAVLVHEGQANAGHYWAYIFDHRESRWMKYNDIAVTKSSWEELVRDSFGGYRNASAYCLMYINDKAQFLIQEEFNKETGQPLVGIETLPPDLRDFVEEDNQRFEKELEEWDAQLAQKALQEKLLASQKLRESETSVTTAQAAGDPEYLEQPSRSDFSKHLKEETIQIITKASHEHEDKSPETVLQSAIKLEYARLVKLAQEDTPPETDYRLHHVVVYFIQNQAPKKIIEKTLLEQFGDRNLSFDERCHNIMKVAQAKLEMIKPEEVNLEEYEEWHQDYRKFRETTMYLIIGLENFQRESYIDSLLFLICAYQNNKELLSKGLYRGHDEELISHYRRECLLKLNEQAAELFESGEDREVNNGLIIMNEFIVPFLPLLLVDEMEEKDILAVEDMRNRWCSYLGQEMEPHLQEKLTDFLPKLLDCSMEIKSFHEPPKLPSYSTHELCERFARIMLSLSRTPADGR
UniProt Q15853: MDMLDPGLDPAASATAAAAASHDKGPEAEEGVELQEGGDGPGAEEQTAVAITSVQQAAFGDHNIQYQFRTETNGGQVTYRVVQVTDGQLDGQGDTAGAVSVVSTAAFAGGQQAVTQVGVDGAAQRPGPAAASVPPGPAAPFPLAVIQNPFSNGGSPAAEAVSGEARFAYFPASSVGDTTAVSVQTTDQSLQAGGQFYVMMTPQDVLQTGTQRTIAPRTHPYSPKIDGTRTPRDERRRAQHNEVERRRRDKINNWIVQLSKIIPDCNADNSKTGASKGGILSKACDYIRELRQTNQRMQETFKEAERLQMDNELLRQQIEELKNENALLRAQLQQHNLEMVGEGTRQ
UniProt Q8WVY7: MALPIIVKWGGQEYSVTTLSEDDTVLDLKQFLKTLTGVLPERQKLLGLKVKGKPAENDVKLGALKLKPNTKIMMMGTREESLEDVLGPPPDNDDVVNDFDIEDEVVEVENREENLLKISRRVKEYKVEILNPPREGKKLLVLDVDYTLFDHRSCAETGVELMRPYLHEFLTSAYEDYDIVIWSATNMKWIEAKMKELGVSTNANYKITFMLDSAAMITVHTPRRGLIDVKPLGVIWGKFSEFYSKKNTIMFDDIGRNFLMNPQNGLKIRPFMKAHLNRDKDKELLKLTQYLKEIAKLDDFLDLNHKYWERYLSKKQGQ
UniProt Q96RL1: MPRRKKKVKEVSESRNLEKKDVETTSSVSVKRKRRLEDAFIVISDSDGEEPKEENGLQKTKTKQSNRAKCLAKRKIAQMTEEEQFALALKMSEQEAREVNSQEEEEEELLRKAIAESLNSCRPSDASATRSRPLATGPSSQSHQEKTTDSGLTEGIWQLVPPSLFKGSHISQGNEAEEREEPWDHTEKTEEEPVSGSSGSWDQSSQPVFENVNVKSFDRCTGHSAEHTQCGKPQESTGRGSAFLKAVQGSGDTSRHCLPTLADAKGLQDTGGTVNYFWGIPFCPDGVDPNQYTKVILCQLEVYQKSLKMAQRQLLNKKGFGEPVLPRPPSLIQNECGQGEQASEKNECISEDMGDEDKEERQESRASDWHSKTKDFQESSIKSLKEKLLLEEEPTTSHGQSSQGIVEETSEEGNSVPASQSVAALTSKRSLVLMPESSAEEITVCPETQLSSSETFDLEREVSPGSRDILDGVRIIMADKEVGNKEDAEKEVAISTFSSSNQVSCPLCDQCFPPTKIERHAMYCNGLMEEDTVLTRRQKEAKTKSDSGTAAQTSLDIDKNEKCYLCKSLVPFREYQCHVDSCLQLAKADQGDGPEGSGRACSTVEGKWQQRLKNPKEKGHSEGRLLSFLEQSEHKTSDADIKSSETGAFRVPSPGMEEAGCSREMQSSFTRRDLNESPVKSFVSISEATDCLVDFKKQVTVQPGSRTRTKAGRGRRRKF

Legend:
Experiment in all cases: log2 fold change, soluble protein after heating vs DMSO (PISA); higher = thermal stabilisation; K562 cells, 10 uM, 30 min; active = over 0.2 and 3.5 SD of the protein, either way, in both replicates (recomputed)
[1] = compound: C#Cc1cccc(Nc2ncnc3cc(OCCOC)c(OCCOC)cc23)c1 [erlotinib]
Outline: (§1)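 K562 cells at 2×10^6 cells/mL were treated for 30 min with 10 μM compound, and aliquots were heated for 3 min over 48°C-58°C before pooling. Extraction used PBS with 0.5% NP-40 at 4°C, and soluble protein was the supernatant after 21,000xg for 90 min, measured by TMTpro 16plex LC-MS/MS with channel sums equalised. Thermal stability values, relative to control samples and from duplicates, are log2 fold changes.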

[2] = compound: C/C(=N\NC(=O)C1=CC(=CC=C1)S(=O)(=O)N2CCOCC2)/C3=C(C=CC(=C3)Cl)O
Outline: as §1

[3] = compound: C1=CC(=C(C=C1Cl)C2=NC3=NC=CN=C3C(=N2)NC4=CC=NC=C4)F
Outline: as §1

[4] = compound: C1=CC(=CC=C1C2=NC3=C(N2)C=C(C=C3)C(=O)N)OC4=CC=C(C=C4)Cl
Outline: as §1

[5] = compound: C1=CC2=C(C=CC(=C2)/C=C\3/C(=O)NC(=NCC4=CC=CS4)S3)N=C1
Outline: as §1

[6] = compound: C1=CC2=NC=CN=C2C=C1/C=C/3\C(=O)NC(=O)S3
Outline: as §1

[7] = compound: C1=CC=C(C=C1)C2=NC(=C(N2)C3=CC=NC=C3)C4=CC(=C(C=C4)Cl)O
Outline: as §1

[8] = compound: C1=CC=C2C(=C1)C3=NNC4=CC=CC(=C43)C2=O
Outline: as §1

[9] = compound: C1CCN(C1)C(=O)NC2=CC=CC(=C2)NC3=NC=C(C(=N3)NCCC4=CN=CN4)Br
Outline: as §1

[10] = compound: C1CN(CCC1(CC2=CC=C(C=C2)Cl)N)C3=NC=NC4=C3C=CN4
Outline: as §1

[11] = compound: C1COCCN1CCN2C3=CC=CC=C3N=C2NC(=O)C4=CC(=CC=C4)[N+](=O)[O-] [IRAK-1-4 Inhibitor I]
Outline: as §1

[12] = compound: C=CC(=O)N1CCC[C@@H](n2nc(-c3ccc(Oc4ccccc4)cc3)c3c(N)ncnc32)C1 [ibrutinib]
Outline: as §1

[13] = compound: CC(=O)c1cnc2ccc(-c3cc(Cl)c(O)c(Cl)c3)nc2c1N[C@H]1CC[C@H](CN(C)C)CC1
Outline: as §1

[14] = compound: CC(C)(C)Cn1c(N)nc2ccc(-c3[nH]c(C(C)(C)C)nc3-c3ccc(F)cc3)nc21 [ralimetinib]
Outline: as §1

[15] = compound: CC(C)(O)CC(=O)NCCn1ccc2ncnc(Nc3ccc(Oc4cccc(C(F)(F)F)c4)c(Cl)c3)c21
Outline: as §1

[16] = compound: CC(C)C1=C2N=C(C=C(N2N=C1)NCC3=CC=CC=C3)NCCCCCCN
Outline: as §1

[17] = compound: CC(C)C[C@@H](C=O)NC(=O)[C@H](CC(C)C)NC(=O)[C@H](CC(C)C)NC(=O)OCc1ccccc1
Outline: as §1

[18] = compound: CC(C)N(C[C@H]1O[C@@H](n2cnc3c(N)ncnc32)[C@H](O)[C@@H]1O)[C@H]1C[C@@H](CCc2nc3cc(C(C)(C)C)ccc3[nH]2)C1 [pinometostat]
Outline: as §1

[19] = compound: CC1=C(C(CC(=O)N1)C2=CC=C(C=C2)C(F)(F)F)C(=O)NC3=C(C=C4C(=C3)C=NN4)F
Outline: as §1

[20] = compound: CC1=C(C2=C(C=C1)C(=O)C3=CC=CC=C3N2CCCN)C
Outline: as §1

Measured: log2 fold change

VAPA (UniProt Q9P0L0)
inactive: [1] -0.034 | [2] -0.034 | [3] 0.023 | [4] -0.064 | [5] -0.017 | [6] 0.063 | [7] 0.033 | [8] 0.099 | [9] -0.007 | [10] 0.05 | [11] 0.017 | [12] -0.159 | [13] 0 | [14] -0.059 | [15] -0.018 | [16] -0.035 | [17] -0.008 | [18] -0.061 | [19] 0.011 | [20] 0.022

UCK2 (UniProt Q9BZX2)
inactive: [1] 0.011 | [2] 0.034 | [3] 0.062 | [4] -0.029 | [5] -0.006 | [6] -0.027 | [7] -0.017 | [8] 0.002 | [9] -0.01 | [10] -0.029 | [11] -0.004 | [12] 0.03 | [13] -0.064 | [14] -0.01 | [15] 0.009 | [16] 0.022 | [17] -0.033 | [18] -0.014 | [19] 0.002 | [20] 0.04

UCHL3 (UniProt P15374)
inactive: [1] -0.062 | [2] 0.114 | [3] 0.068 | [4] -0.005 | [5] 0.017 | [6] 0.04 | [7] -0.045 | [8] -0.019 | [9] 0.012 | [10] 0.006 | [11] 0.043 | [12] 0.001 | [13] 0.003 | [14] -0.078 | [15] -0.008 | [16] -0.007 | [17] 0.01 | [18] -0.01 | [19] 0.049 | [20] 0.047

UCK1 (UniProt Q9HA47)
inactive: [1] 0.004 | [2] 0.11 | [3] 0.102 | [4] -0.013 | [5] 0.005 | [6] -0.005 | [7] 0.053 | [8] -0.002 | [9] -0.011 | [10] 0.044 | [11] -0.021 | [12] 0.043 | [13] -0.032 | [14] -0.146 | [15] -0.156 | [16] 0.057 | [17] 0.041 | [18] -0.034 | [19] 0.089 | [20] 0.027

UPF1 (UniProt Q92900)
inactive: [1] -0.003 | [2] 0.043 | [3] -0.011 | [4] -0.003 | [5] 0.016 | [6] -0.03 | [7] -0.004 | [8] -0.019 | [9] -0.01 | [10] -0.021 | [11] -0.01 | [12] 0.012 | [13] -0.01 | [14] -0.015 | [15] 0.01 | [16] 0.075 | [17] 0.011 | [18] -0.002 | [19] -0.021 | [20] 0.052

UBL4A (UniProt P11441)
inactive: [1] -0.056 | [2] 0.03 | [3] 0.044 | [4] 0.038 | [5] 0.004 | [6] 0.053 | [7] -0.021 | [8] -0.012 | [9] -0.044 | [10] -0.035 | [11] -0.015 | [12] -0.037 | [13] 0.011 | [14] -0.001 | [15] -0.025 | [16] -0.072 | [17] 0.082 | [18] -0.005 | [19] -0.016 | [20] 0.03

UBFD1 (UniProt O14562)
inactive: [1] -0.025 | [2] 0.052 | [3] 0.055 | [4] 0.007 | [5] -0.012 | [6] 0.019 | [7] -0.006 | [8] 0.02 | [9] -0.025 | [10] -0.037 | [11] 0.033 | [12] -0.023 | [13] -0.013 | [14] -0.052 | [15] -0.01 | [16] 0.041 | [17] 0 | [18] -0.029 | [19] 0.005 | [20] 0.023

UPF2 (UniProt Q9HAU5)
inactive: [1] 0.112 | [2] -0.045 | [3] -0.301 | [4] 0.038 | [5] -0.007 | [6] -0.04 | [7] -0.007 | [8] -0.01 | [9] -0.007 | [10] -0.15 | [11] -0.163 | [12] 0.008 | [13] 0.066 | [14] 0.166 | [15] 0.018 | [16] -0.23 | [17] 0.124 | [18] 0.321 | [19] -0.034 | [20] -0.093

UBE4A isoform 2 (UniProt Q14139)
active: [16] -0.376
inactive: [1] 0.012 | [2] 0.148 | [3] 0.083 | [4] -0.11 | [5] 0.012 | [6] 0.083 | [7] -0.039 | [8] -0.301 | [9] -0.018 | [10] -0.132 | [11] -0.114 | [12] -0.125 | [13] -0.017 | [14] 0.02 | [15] -0.032 | [17] 0.096 | [18] 0.093 | [20] 0.041

USP25 isoform 3 (UniProt Q9UHP3)
inactive: [1] 0.007 | [2] 0.086 | [3] 0.02 | [4] 0.002 | [5] 0.028 | [6] 0.005 | [7] -0.024 | [8] 0.011 | [9] -0.038 | [10] 0.043 | [11] 0.002 | [12] -0.002 | [13] -0.019 | [14] -0.027 | [15] 0.015 | [16] 0.001 | [17] 0.052 | [18] 0.001 | [20] 0.002

UROD (UniProt P06132)
inactive: [1] 0.042 | [2] 0.015 | [3] -0.018 | [4] 0.014 | [5] -0.068 | [6] -0.008 | [7] 0.012 | [8] -0.012 | [9] 0.004 | [10] 0.067 | [11] 0.032 | [12] 0.019 | [13] 0.022 | [14] 0.003 | [15] 0.014 | [16] 0.05 | [17] 0.077 | [18] -0.068 | [19] -0.023 | [20] 0.047

UBR2 (UniProt Q8IWV8)
active: [17] 0.351
inactive: [1] 0.019 | [2] 0.067 | [3] -0.108 | [4] 0.051 | [5] 0.045 | [6] 0.046 | [7] -0.08 | [8] -0.189 | [9] 0.016 | [10] 0.018 | [11] 0.002 | [12] -0.102 | [13] -0.11 | [14] 0.029 | [15] -0.086 | [16] -0.058 | [18] 0.137 | [20] 0.076

USF2 (UniProt Q15853)
inactive: [1] -0.007 | [2] 0.036 | [3] 0.076 | [4] 0.177 | [5] 0.121 | [6] 0.011 | [7] 0.001 | [8] -0.005 | [9] 0.02 | [10] 0.026 | [11] -0.01 | [12] -0.031 | [13] -0.042 | [14] 0.057 | [15] -0.086 | [16] -0.005 | [17] 0.085 | [18] -0.014 | [19] 0.05 | [20] -0.04

UBLCP1 (UniProt Q8WVY7)
inactive: [1] 0.03 | [2] 0.089 | [3] 0.024 | [4] -0.022 | [5] -0.029 | [6] 0.005 | [7] -0.019 | [8] 0.038 | [9] 0.035 | [11] -0.029 | [12] -0.072 | [13] -0.057 | [14] -0.104 | [15] -0.061 | [16] -0.027 | [17] 0.191 | [18] 0.017 | [20] -0.155
active: [10] -0.262

USP8 (UniProt P40818)
inactive: [1] 0.131 | [2] 0.088 | [3] -0.034 | [4] -0.042 | [5] 0.164 | [6] 0.027 | [7] -0.018 | [8] 0.023 | [9] -0.15 | [10] -0.025 | [11] 0.043 | [12] 0.05 | [13] -0.123 | [14] 0.058 | [15] -0.08 | [16] -0.064 | [17] 0.127 | [18] 0.153 | [19] -0.034 | [20] 0.064

UIMC1 (UniProt Q96RL1)
inactive: [1] -0.07 | [2] -0.111 | [3] -0.214 | [4] 0.044 | [5] 0.001 | [6] -0.059 | [7] -0.085 | [8] -0.016 | [9] 0.022 | [10] -0.122 | [11] -0.08 | [12] 0 | [13] 0.032 | [14] 0.139 | [15] 0.169 | [16] -0.015 | [17] 0.172 | [18] 0.129 | [19] -0.006 | [20] 0.196
